Source: publication PMC8104407

Tests used:
Test in all cases: co-IP; FLAG-tagged NPHP1 variants co-transfected with GFP-NPHP2 or GFP-NPHP5 in 293T/17 cells (NPHP8 endogenous); protein extracts immunoprecipitated with anti-FLAG M2 magnetic beads; immunoblotting; empty pCS2FLAG vector as control
[1] = molecular target: FLAG-tagged NPHP1 (full-length) (mouse)
[2] = molecular target: FLAG-tagged NPHP1 Δ(49–110) (mouse)
[3] = molecular target: FLAG-tagged NPHP1 aa242-685 (mouse)

| binding [1] | binding [2] | binding [3] | Binder |
| --- | --- | --- | --- |
| binds | binds | binds | GFP-tagged NPHP5 (protein, UniProt Q15051 1-598) MKPTGTDPRILSIAAEVAKSPEQNVPVILLKLKEIINITPLGSSELKKIKQDIYCYDLIQYCLLVLSQDYSRIQGGWTTISQLTQILSHCCVGLEPGEDAEEFYNELLPSAAENFLVLGRQLQTCFINAAKAEEKDELLHFFQIVTDSLFWLLGGHVELIQNVLQSDHFLHLLQADNVQIGSAVMMMLQNILQINSGDLLRIGRKALYSILDEVIFKLFSTPSPVIRSTATKLLLLMAESHQEILILLRQSTCYKGLRRLLSKQETGTEFSQELRQLVGLLSPMVYQEVEEQKLHQAACLIQAYWKGFQTRKRLKKLPSAVIALQRSFRSKRSKMLLEINRQKEEEDLKLQLQLQRQRAMRLSRELQLSMLEIVHPGQVEKHYREMEEKSALIIQKHWRGYRERKNFHQQRQSLIEYKAAVTLQRAALKFLAKCRKKKKLFAPWRGLQELTDARRVELKKRVDDYVRRHLGSPMSDVVSRELHAQAQERLQHYFMGRALEERAQQHREALIAQISTNVEQLMKAPSLKEAEGKEPELFLSRSRPVAAKAKQAHLTTLKHIQAPWWKKLGEESGDEIDVPKDELSIELENLFIGGTKPP |
| binds | binds | binds | GFP-tagged NPHP2 (protein, UniProt Q9Y283 1-1065) MNKSENLLFAGSSLASQVHAAAVNGDKGALQRLIVGNSALKDKEDQFGRTPLMYCVLADRLDCADALLKAGADVNKTDHSQRTALHLAAQKGNYRFMKLLLTRRANWMQKDLEEMTPLHLTTRHRSPKCLALLLKFMAPGEVDTQDKNKQTALHWSAYYNNPEHVKLLIKHDSNIGIPDVEGKIPLHWAANHKDPSAVHTVRCILDAAPTESLLNWQDYEGRTPLHFAVADGNVTVVDVLTSYESCNITSYDNLFRTPLHWAALLGHAQIVHLLLERNKSGTIPSDSQGATPLHYAAQSNFAETVKVFLKHPSVKDDSDLEGRTSFMWAAGKGSDDVLRTMLSLKSDIDINMADKYGGTALHAAALSGHVSTVKLLLENNAQVDATDVMKHTPLFRACEMGHKDVIQTLIKGGARVDLVDQDGHSLLHWAALGGNADVCQILIENKINPNVQDYAGRTPLQCAAYGGYINCMAVLMENNADPNIQDKEGRTALHWSCNNGYLDAIKLLLDFAAFPNQMENNEERYTPLDYALLGERHEVIQFMLEHGALSIAAIQDIAAFKIQAVYKGYKVRKAFRDRKNLLMKHEQLRKDAAAKKREEENKRKEAEQQKGRRSPDSCRPQALPCLPSTQDVPSRQSRAPSKQPPAGNVAQGPEPRDSRGSPGGSLGGALQKEQHVSSDLQGTNSRRPNETAREHSKGQSACVHFRPNEGSDGSRHPGVPSVEKSRGETAGDERCAKGKGFVKQPSCIRVAGPDEKGEDSRRAAASLPPHDSHWKPSRRHDTEPKAKCAPQKRRTQELRGGRCSPAGSSRPGSARGEAVHAGQNPPHHRTPRNKVTQAKLTGGLYSHLPQSTEELRSGARRLETSTLSEDFQVSKETDPAPGPLSGQSVNIDLLPVELRLQIIQRERRRKELFRKKNKAAAVIQRAWRSYQLRKHLSHLRHMKQLGAGDVDRWRQESTALLLQVWRKELELKFPQTTAVSKAPKSPSKGTSGTKSTKHSVLKQIYGCSHEGKIHHPTRSVKASSVLRLNSVSNLQCIHLLENSGRSKNFSYNLQSATQPKNKTKP |

No constants are given. Whether binding was seen depends on the method and setting. In cells and extracts the contact can be indirect. Binding calls can cover weak binding; strength is not graded here. Sequences can lack the tags named with a protein.
